Source: PubChem BioAssay AID1347131 (National Center for Advancing Translational Sciences (NCATS), 2019)
The campaign covered roughly 410,000 compounds. About 2,000 (0.49%) were called active. The shares of active, inactive and inconclusive entries below differ from those in the screen. Calls come from the whole dose curve; tested in HEK293 reporter line. Potencies of inconclusive entries are doubtful fits and often do not repeat.

assay: qHTS Assay for Foot and Mouth Disease Virus Antivirals: Primary Screen against the MLPCN compound library; details: FMDV antiviral cell-based qHTS; activity, negative = inhibition: at 57.9 µM (top of the series); note: nearly all actives have a fitted effect of over 55% in size
Potency is the fitted concentration of half-maximal effect.

Q: For Oc1[nH]c2ccccc2c1C=Nc1ccc2c(c1)OCCO2, which Potency is on record?
A: inconclusive: 20 µM [inhibitor, single point]

Q: Which Potency does the source give for Cc1cc(C)nc(/N=C(\N)Nc2cccc(OCc3ccccc3)c2)n1 here?
A: inconclusive: 31.6 µM [inhibitor, partial curve, poor fit]

Q: With C=CS(=O)(=O)c1ccc(Oc2ccc(S(=O)(=O)C=C)cc2)cc1 as the compound, how does the Potency read?
A: inconclusive: 3.98 µM [inhibitor, partial curve, poor fit]

Q: With CCC(=O)N1CCN(c2ccc(NC(=O)c3cc4ccccc4o3)cc2Cl)CC1 as the compound, how does the Potency read?
A: inconclusive: 8.91 µM [inhibitor, full curve, poor fit]

Q: Which Potency does the source give for CCC(=O)Nc1cccc(C(=O)/C=C/c2ccccc2)c1 here?
A: inconclusive: 17.8 µM [inhibitor, partial curve, poor fit]

Q: For CCOc1cc2[nH]c(=O)n(CCCCC(=O)N3CCN(c4cccc(Cl)c4)CC3)c(=O)c2cc1OCC, which Potency is on record?
A: inconclusive: 25.1 µM [inhibitor, partial curve, poor fit]

Q: For COC(=O)C1=C(C)N(c2cccc3ccccc23)C(=O)C1, which “activity, negative = inhibition” value is on record?
A: inactive: -41.1%

Q: Which Potency does the source give for Cc1ccc(CNC(=O)COC(=O)C2CCC2)cc1 here?
A: inconclusive: 31.6 µM [inhibitor, partial curve, poor fit]

Q: Which Potency does the source give for CNc1ccc(-c2nc(-c3ccco3)no2)cc1[N+](=O)[O-] here?
A: inconclusive: 8.91 µM [inhibitor, partial curve]

Q: With CCOC(=O)N1C/C(=C\c2ccccc2)C(=O)/C(=C/c2ccccc2)C1 as the compound, how does the Potency read?
A: inconclusive: 20 µM [inhibitor, partial curve, poor fit]

Q: Which Potency does the source give for CC(=O)Nc1ccc(SCC(=O)c2cc(C)n(Cc3cccs3)c2C)cc1 here?
A: inconclusive: 22.4 µM [inhibitor, partial curve, poor fit]

Q: Which Potency does the source give for COCc1c(C(=O)OCC(=O)c2c(N)n(CC(C)C)c(=O)n(C)c2=O)oc2ccccc12 here?
A: inconclusive: 31.6 µM [inhibitor, single point]

Q: With O=C(CSc1nc2ccccc2c(=O)n1Cc1ccco1)c1ccc(F)cc1 as the compound, how does the “activity, negative = inhibition” value read?
A: inactive: -32.3%

Q: With CC1CCC(C(C)C)C(OC(=O)Cn2c(-c3ccc(Br)cc3)[n+](C)c3ccccc32)C1 (stereo not drawn) as the compound, how does the Potency read?
A: active: 15.8 µM

Q: For CCOc1cc(CNCCc2ccc(S(N)(=O)=O)cc2)cc(Cl)c1OCc1ccccc1, which Potency is on record?
A: inconclusive: 20 µM [inhibitor, partial curve, poor fit]

Q: Which Potency does the source give for Cc1cc(NC(=O)CN2CC(C)OC(C)C2)n(-c2nc3ccccc3s2)n1 (stereo not drawn) here?
A: inconclusive: 12.6 µM [inhibitor, partial curve]

Q: For CCCCCCCCCCCCC[N+](C)(C)Cc1ccccc1, which Potency is on record?
A: inconclusive: 28.2 µM [inhibitor, partial curve, poor fit]

Q: With C[C@@H](NC(=O)c1coc(=O)c(Br)c1)c1ccccc1 as the compound, how does the Potency read?
A: inconclusive: 39.8 µM [inhibitor, partial curve, poor fit]

Q: With C=CCc1ccc(OCc2ccc(C(=O)O)o2)c(OC)c1 as the compound, how does the Potency read?
A: inconclusive: 14.1 µM [inhibitor, partial curve, poor fit]

Q: With COc1ccc(CC(=O)Nc2cccc(-c3nnc(-c4cccc(C)c4)o3)c2)cc1OC as the compound, how does the Potency read?
A: inconclusive: 39.8 µM [inhibitor, partial curve, poor fit]

Q: With O=C(O)CCNc1nc(C(F)(F)F)nc2ccccc12 as the compound, how does the Potency read?
A: inconclusive: 10 µM [inhibitor, partial curve, poor fit]

Q: Which Potency does the source give for Cc1c(/C=N/NC(=O)c2cccnc2)c2ccccc2n1Cc1ccccc1 here?
A: inconclusive: 14.1 µM [inhibitor, partial curve, poor fit]

Q: With CC(=O)c1c(C)oc2ccc(N(C(C)=O)S(=O)(=O)c3ccc(Cl)c([N+](=O)[O-])c3)cc12 as the compound, how does the Potency read?
A: inconclusive: 35.5 µM [inhibitor, partial curve, poor fit]

Q: For Cc1ccccc1N1C(=O)NC(=O)/C(=C\c2cc(Br)c(N3CCOCC3)o2)C1=O, which Potency is on record?
A: inconclusive: 15.8 µM [inhibitor, partial curve, poor fit]

Q: For CC(=O)c1cccc(NC(=O)C2Cc3c(-c4cccc(C(C)=O)c4)ccnc3O2)c1 (stereo not drawn), which Potency is on record?
A: inconclusive: 22.4 µM [inhibitor, partial curve, poor fit]

Q: With Cc1cc[n+](CC(=O)c2ccc(NC(=O)c3ccccc3)cc2)c2ccccc12 as the compound, how does the “activity, negative = inhibition” value read?
A: inactive: -32%

Q: For N/C(=N\OC(=O)c1ccccc1[N+](=O)[O-])c1ccccn1, which Potency is on record?
A: inconclusive: 17.8 µM [inhibitor, single point]

Q: Which Potency does the source give for Cc1nn2c(=O)cc(COC(=O)c3ccc(NC(=O)C4CCCCC4)cc3)nc2s1 here?
A: inconclusive: 11.2 µM [inhibitor, partial curve, poor fit]

Q: Which “activity, negative = inhibition” value does the source give for Cc1[nH]n(-c2ccc(F)cc2)c(=O)c1/C=N/c1sc2c(c1C#N)CCCC2 here?
A: inactive: -28.2%

Q: Which Potency does the source give for Cn1ncc2c(N3CCN(c4ccc(Cl)c(Cl)c4)CC3)ncnc21 here?
A: inconclusive: 11.2 µM [inhibitor, partial curve, poor fit]

Q: For Cc1nn2c(=O)cc(COC(=O)c3cccc(NC(=O)c4cccs4)c3)nc2s1, which Potency is on record?
A: inconclusive: 10 µM [inhibitor, partial curve, poor fit]

Q: Which Potency does the source give for COC(=O)c1cccc(Nc2ncnc3sccc23)c1 here?
A: inconclusive: 17.8 µM [inhibitor, single point]

Q: For Cc1cc(N2CCC(C(=O)NC3CC3)CC2)nc(-c2ccccc2)n1, which Potency is on record?
A: inconclusive: 17.8 µM [inhibitor, partial curve, poor fit]

Q: With CCc1cc(C(=O)N2CCCC(C(=O)c3ccc(Cl)cc3)C2)no1 (stereo not drawn) as the compound, how does the “activity, negative = inhibition” value read?
A: inactive: -42%

Q: For O=C(Nc1ccc(N2CCN(C(=O)c3ccco3)CC2)c(Cl)c1)c1cc2ccccc2o1, which Potency is on record?
A: inconclusive: 8.91 µM [inhibitor, partial curve, poor fit]

Q: For O=[N+]([O-])c1ccc(S(=O)(=O)c2cccc(C(F)(F)F)c2)nc1, which Potency is on record?
A: inconclusive: 17.8 µM [inhibitor, partial curve, poor fit]

Q: With COc1ccccc1CNC(=O)c1ccc(CS(=O)(=O)c2ccccc2C)o1 as the compound, how does the Potency read?
A: inactive

Q: Which “activity, negative = inhibition” value does the source give for CCOC(=O)/C=C/C(=O)Nc1ccc(S(=O)(=O)N2CCCCCC2)cc1 here?
A: inactive: -33.1%
